Laboratory results: PubChem BioAssay AID504774 (Drosophila RNAi Screening Center, 2011)
Purpose: 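Fly genes whose loss alters survival after alkylation damage to DNA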 (primary screen). Cells: Drosophila Kc167 cells. Reagents: long dsRNA against Drosophila genes, about 0.25 µg dsRNA per well. Duration: about 6 days: 3 days knock-down, then 3 days with or without MMS. Conditions: methyl methanesulphonate 0.004% (w/v) for 3 days after knock-down. Measured: 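Viability in wells given MMS, read as ATP luminescence, normalised by quantiles plate by plate and averaged across replicates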. Reading the numbers: mean viability with MMS and viability with MMS: higher = more surviving cells after MMS.
The screen tested about 23,000 reagents; this is an unselected part of those that have a named target and a result. 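Values are quantile-normalised luminescence on an arbitrary scale; higher means more cells surviving MMS.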

gene | DRSC id | mean viability with MMS | viability with MMS, replicate 1 | viability with MMS, replicate 2
Gr23a (Gustatory receptor 23a) | DRSC00410 | 3.50e6 | 3.91e6 | 4.03e6
Lsp2 (Larval serum protein 2) | DRSC09841 | 3.40e6 | 3.79e6 | 3.87e6
Lsp2 (Larval serum protein 2) | DRSC11216 | 3.55e6 | 3.95e6 | 4.10e6
naz (nazgul) | DRSC14790 | 3.64e6 | 4.02e6 | 4.21e6
naz (nazgul) | DRSC16199 | 3.52e6 | 3.94e6 | 4.05e6
CG43322 | DRSC02280 | 3.45e6 | 3.86e6 | 3.95e6
CG10576 | DRSC09745 | 3.58e6 | 3.98e6 | 4.16e6
CG15293 | DRSC01919 | 3.62e6 | 4.15e6 | 4.04e6
Mis12 | DRSC10299 | 3.45e6 | 3.88e6 | 3.94e6
CG30089 | DRSC06126 | 3.54e6 | 3.95e6 | 4.07e6
CG30089 | DRSC06127 | 2.50e6 | 2.87e6 | 3.11e6
CG30089 | DRSC06267 | 3.47e6 | 3.89e6 | 4.16e6
CG30089 | DRSC06268 | 1.98e6 | 4.21e6 | –
CG30089 | DRSC21694 | 3.43e6 | 3.85e6 | 3.97e6
CycC (Cyclin C) | DRSC16619 | 3.53e6 | 3.98e6 | 4.03e6
dtr (defective transmitter release) | DRSC01847 | 3.54e6 | 4.02e6 | 3.99e6
sov (small ovary) | DRSC17930 | 3.67e6 | 4.36e6 | 4.08e6
Setx (Senataxin) | DRSC10859 | 3.28e6 | 3.75e6 | 3.58e6
Csgalnact (Chondroitin sulfate N-acetylgalactosaminyltransferase) | DRSC06228 | 3.50e6 | 4.03e6 | 3.92e6
lectin-30A | DRSC02560 | 3.67e6 | 4.02e6 | 4.30e6
ppk22 (pickpocket 22) | DRSC22093 | 3.53e6 | 3.99e6 | 4.01e6
Nach | DRSC07478 | 3.50e6 | 3.91e6 | 4.02e6
Pfdn4 (Prefoldin 4) | DRSC09761 | 3.47e6 | 3.90e6 | 3.97e6
CG12010 | DRSC08218 | 3.85e6 | 4.39e6 | 4.23e6
msd1 (mitotic spindle density 1) | DRSC08383 | 3.44e6 | 3.96e6 | 3.85e6
CG30192 | DRSC03977 | 3.49e6 | 3.98e6 | 3.95e6
CG12539 | DRSC19470 | 3.50e6 | 3.96e6 | 3.99e6
CG17121 | DRSC15176 | 3.64e6 | 4.18e6 | 4.08e6
CG34406 (retired record) | DRSC00523 | 3.69e6 | 3.95e6 | 4.47e6
CG34406 (retired record) | DRSC00606 | 3.84e6 | 4.08e6 | 4.49e6
CG13312 | DRSC09983 | 3.42e6 | 3.90e6 | 3.84e6
DCAF12 (DDB1 and CUL4 associated factor 12) | DRSC15475 | 3.66e6 | 4.26e6 | 4.08e6
Gr98a (Gustatory receptor 98a) | DRSC14719 | 1.77e6 | 3.98e6 | 3.91e6
mge (maggie) | DRSC08721 | 3.51e6 | 3.97e6 | 3.98e6
CG10621 | DRSC02078 | 3.63e6 | 4.14e6 | 4.09e6
colt (congested-like trachea) | DRSC00808 | 3.49e6 | 3.97e6 | 3.89e6
Rab32 | DRSC05146 | 3.45e6 | 3.88e6 | 3.91e6
Rab32 | DRSC07522 | 3.55e6 | 4.12e6 | 3.93e6
Lcp1 (Larval cuticle protein 1) | DRSC07455 | 3.39e6 | 3.86e6 | 3.83e6
pdgy (pudgy) | DRSC19064 | 3.47e6 | 4.04e6 | 3.87e6
pdgy (pudgy) | DRSC19341 | 3.74e6 | 3.94e6 | 4.50e6
hrm (hermes) | DRSC04853 | 3.71e6 | 4.22e6 | 4.16e6
dpp (decapentaplegic) | DRSC00118 | 3.63e6 | 4.07e6 | 4.17e6
dpp (decapentaplegic) | DRSC00121 | 3.63e6 | 4.12e6 | 4.11e6
dpp (decapentaplegic) | DRSC00813 | 3.50e6 | 3.96e6 | 3.97e6
Lpin (Lipin) | DRSC07241 | 3.80e6 | 4.42e6 | 4.17e6
CG3568 | DRSC18312 | 3.62e6 | 4.13e6 | 4.08e6

Single entries from above:
For “viability with MMS, replicate 2”, sov (small ovary) [DRSC17930] is entered as 4.08e6
Lpin (Lipin) [DRSC07241], mean viability with MMS → 3.80e6
Value of lectin-30A [DRSC02560] in “mean viability with MMS”: 3.67e6
For “mean viability with MMS”, dtr (defective transmitter release) [DRSC01847] is entered as 3.54e6
hrm (hermes) [DRSC04853], viability with MMS, replicate 1 = 4.22e6
Entry for Lcp1 (Larval cuticle protein 1) [DRSC07455] in “mean viability with MMS”: 3.39e6

Next entries follow.
gene | DRSC id | mean viability with MMS | viability with MMS, replicate 1 | viability with MMS, replicate 2
CG1910 | DRSC15400 | 3.59e6 | 4.09e6 | 4.04e6
Arf1 (ADP ribosylation factor 1) | DRSC11606 | 3.66e6 | 4.16e6 | 4.10e6
TSG101 (Tumor susceptibility gene 101) | DRSC11098 | 3.58e6 | 4.08e6 | 4.04e6
CG3008 | DRSC00560 | 3.55e6 | 4.16e6 | 3.88e6
PhKgamma (Phosphorylase kinase gamma) | DRSC20268 | 3.48e6 | 4.15e6 | 3.66e6
ddbt (deadbeat) | DRSC07869 | 3.88e6 | 4.48e6 | 4.17e6
Adgf-B (Adenosine deaminase-related growth factor B) | DRSC10568 | 3.59e6 | 3.94e6 | 4.20e6
tsu (tsunagi) | DRSC07265 | 3.36e6 | 3.87e6 | 3.75e6
RhoGAP18B (Rho GTPase activating protein at 18B) | DRSC19763 | 3.66e6 | 4.17e6 | 4.07e6
RhoGAP18B (Rho GTPase activating protein at 18B) | DRSC20047 | 3.57e6 | 4.12e6 | 3.97e6
RhoGAP18B (Rho GTPase activating protein at 18B) | DRSC20048 | 3.55e6 | 4.04e6 | 4.02e6
RhoGAP18B (Rho GTPase activating protein at 18B) | DRSC20049 | 3.43e6 | 3.94e6 | 3.84e6
rdgA (retinal degeneration A) | DRSC17863 | 3.30e6 | 3.72e6 | 3.71e6
rdgA (retinal degeneration A) | DRSC18036 | 3.42e6 | 3.94e6 | 3.82e6
rdgA (retinal degeneration A) | DRSC18827 | 3.06e6 | 3.95e6 | 2.83e6
Kaz (Katazuke) | DRSC14637 | 3.56e6 | 3.99e6 | 4.07e6
CG2129 | DRSC18209 | 3.48e6 | 3.90e6 | 4.02e6
CheB38b (Chemosensory protein B 38b) | DRSC22874 | 3.32e6 | 3.85e6 | 3.86e6
CG13603 | DRSC14606 | 3.56e6 | 4.02e6 | 4.07e6
S6KL (S6 Kinase Like) | DRSC19349 | 3.74e6 | 4.03e6 | 3.97e6
S6KL (S6 Kinase Like) | DRSC21578 | 3.54e6 | 4.00e6 | 4.05e6
S6KL (S6 Kinase Like) | DRSC23147 | 3.37e6 | 3.86e6 | 3.81e6
CG14442 | DRSC17935 | 3.47e6 | 3.89e6 | 4.06e6
ssp6 (short spindle 6) | DRSC08791 | 3.36e6 | 3.75e6 | 3.82e6
ssp6 (short spindle 6) | DRSC10677 | 3.57e6 | 4.20e6 | 3.89e6
Lsm11 | DRSC06238 | 3.45e6 | 3.86e6 | 3.99e6
CG31495 | DRSC16762 | 3.52e6 | 4.05e6 | 3.93e6
Sac1 (Sac1 phosphatase) | DRSC08622 | 3.68e6 | 4.12e6 | 4.22e6
CG33467 | DRSC05525 | 3.64e6 | 4.06e6 | 4.11e6
CG33467 | DRSC22651 | 3.56e6 | 3.96e6 | 4.08e6
cyc (cycle) | DRSC11337 | 3.54e6 | 4.08e6 | 3.95e6
CG15468 | DRSC18051 | 3.50e6 | 3.97e6 | 4.00e6
su(f) (suppressor of forked) | DRSC20907 | 3.40e6 | 3.89e6 | 3.82e6
OtopLc (Otopetrin-like c) | DRSC18082 | 3.62e6 | 4.09e6 | 4.12e6
OtopLc (Otopetrin-like c) | DRSC18083 | 3.49e6 | 3.99e6 | 3.93e6
OtopLc (Otopetrin-like c) | DRSC18132 | 3.72e6 | 4.33e6 | 4.11e6
CG14635 | DRSC17945 | 3.45e6 | 3.93e6 | 3.89e6
CG34300 | DRSC13977 | 3.40e6 | 3.80e6 | 3.90e6
Gr36b (Gustatory receptor 36b) | DRSC21637 | 3.64e6 | 4.12e6 | 4.10e6
CG34038 | DRSC04039 | 3.62e6 | 4.14e6 | 4.08e6
